{"source": "PubChem BioAssay AID1259254 (NCATS, 2017)", "test": "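Finding genes that stop cells copying their DNA twice in one cycle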 (primary screen)", "system": "human HCT116 colorectal cancer cells", "reagent": "single siRNA against human genes", "timing": "3 days", "detection": "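Imaged Hoechst DNA stain sorts each cell into a cycle phase by DNA amount; per plate, G2 fraction set to 0% for non-targeting and 100% for GMNN siRNA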", "scale": "G2 robust z-score: higher = more G2 cells, more excess DNA replication", "hit rule": "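An siRNA counts as active if its G2 robust z-score lies at least 5 MADs above the screen median; here such calls match roughly 38% of GMNN control or more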", "note": "This is an unselected part of about 59,000 deposited reagents. About 1,550 of all reagents (2.6%) were called active. 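G2 share is only a proxy for re-replication; each gene was hit by three separate siRNAs, and active genes were retested.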 A number with no mark means an inactive call. The numbers tell different reagents against one gene apart. Not all columns of the deposit are shown. The record does not give: the amount of reagent."}
{"gene":"LINC01547","siRNA no.":1,"G2 robust z-score":-0.709}
{"gene":"LINC01547","siRNA no.":2,"G2 robust z-score":-0.424}
{"gene":"LINC01547","siRNA no.":3,"G2 robust z-score":0.496}
{"gene":"LINC01547","siRNA no.":4,"G2 robust z-score":-0.521}
{"gene":"LINC01547","siRNA no.":5,"G2 robust z-score":0.0938}
{"gene":"LINC01547","siRNA no.":6,"G2 robust z-score":0.065}
{"gene":"USP37","siRNA no.":1,"G2 robust z-score":-0.598}
{"gene":"USP37","siRNA no.":2,"G2 robust z-score":-0.687}
{"gene":"USP37","siRNA no.":3,"G2 robust z-score":0.0186}

A run of entries of the results above, as a working copy:
{"gene":"LINC01547","siRNA no.":5,"G2 robust z-score":0.0938}
{"gene":"LINC01547","siRNA no.":6,"G2 robust z-score":0.065}

Next entries:
{"gene":"JMJD4","siRNA no.":1,"G2 robust z-score":1.58}
{"gene":"JMJD4","siRNA no.":2,"G2 robust z-score":-0.771}
{"gene":"JMJD4","siRNA no.":3,"G2 robust z-score":-0.788}
{"gene":"TMEM131","siRNA no.":1,"G2 robust z-score":-1.27}
{"gene":"TMEM131","siRNA no.":2,"G2 robust z-score":0.789}
{"gene":"TMEM131","siRNA no.":3,"G2 robust z-score":-0.291}
{"gene":"GRK2","siRNA no.":1,"G2 robust z-score":-0.457}
{"gene":"GRK2","siRNA no.":2,"G2 robust z-score":2.78}
{"gene":"GRK2","siRNA no.":3,"G2 robust z-score":-0.567}
{"gene":"TRIM56","siRNA no.":1,"G2 robust z-score":-1.07}
{"gene":"TRIM56","siRNA no.":2,"G2 robust z-score":-0.283}
{"gene":"TRIM56","siRNA no.":3,"G2 robust z-score":-0.213}
{"gene":"IMPA2","siRNA no.":1,"G2 robust z-score":0.184}
{"gene":"IMPA2","siRNA no.":2,"G2 robust z-score":-1.14}
{"gene":"IMPA2","siRNA no.":3,"G2 robust z-score":-0.562}
